Laboratory results: PubChem BioAssay AID504791 (Drosophila RNAi Screening Center, 2011)
Screen: 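Factors in Argonaute-based small RNA production and activity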 (primary screen). Cells: Drosophila S2-derived reporter cells. Knock-down reagent: long dsRNA against Drosophila genes, about 150-250 ng dsRNA per well (siRNA assay); about 80-120 ng (miRNA assay). Timing: about 5 days (siRNA assay); about 4 days (miRNA assay). Conditions: copper sulfate induction of reporters: 25 µM (siRNA assay); 200 mM stated (miRNA assay), 1-2 days before reading. Detection: 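Dual luciferase assay: Renilla to firefly signal ratio in each well, scaled to the mean ratio of its plate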. Hit rule: 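First-pass picks had plate-scaled ratios over 1.5 for the siRNA assay, over 1.6 for the miRNA assay, or under 0.6; two distinct dsRNAs had to score alike on retest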.
The deposit covers about 23,000 reagents; this is a random part of those with a known target gene and a result. Over the whole deposit, 199 (0.86%) were called active. 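Plate-scaled ratios behind the calls are not deposited; printed light signals are raw; many rows marked increased or decreased are still called inactive.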 A number with no mark means an inactive call. Reagents against one gene are numbered here. A plus sign joins genes that one reagent is predicted to hit. Not given: the direction of the score.

no.	target	dsRNA no.	stable siRNA reporter change	miRNA reporter change	stable assay Renilla, run 1 (luminescence)	stable assay firefly, run 1 (luminescence)
1	SecS (Sec synthetase)	1			7216	4.14e5
2	Shab (Shaker cognate b)	1			6074	3.48e5
3	Shab (Shaker cognate b)	2			6343	3.44e5
4	Shab (Shaker cognate b)	3			14098	4.70e5
5	GatA (Glutamyl-tRNA amidotransferase, subunit A)	1			8090	4.38e5
6	mmy (mummy)	1			16399	8.59e5
7	mRpL43 (mitochondrial ribosomal protein L43)	1			3971	3.80e5
8	mRpL43 (mitochondrial ribosomal protein L43)	2			4579	3.66e5
9	AnxB9 (Annexin B9)	1			7967	2.50e5
10	CG30039	1			9526	4.21e5
11	CG31898	1			5443	4.60e5
12	CG42299 + CG42300	1			6110	4.49e5
13	CG42299 + CG42300	2			5443	4.41e5
14	CG34460	1			6511	4.69e5
15	daed (daedalus)	1			10747	5.61e5
16	Fkbp39 (FK506-binding protein 39kD)	1		reporter ratio lowered past the hit cutoff (active)	6994	4.11e5
17	CG31673	1			81135	6.56e5
18	CG33679	1			5559	4.13e5
19	CG5890	1			7134	3.56e5
20	Ho (Heme oxygenase)	1			8342	4.90e5
21	CG11069	1			9163	3.18e5
22	cnk (connector enhancer of ksr)	1			6143	3.22e5
23	Dmtn (Dementin)	1			7858	4.73e5
24	su(Hw) (suppressor of Hairy wing)	1			8178	4.58e5
25	CG14301	1			8845	5.20e5
26	CG12111	1			5468	2.74e5
27	CSN1b (COP9 signalosome subunit 1b)	1			4992	2.94e5
28	klar (klarsicht)	1			11690	4.32e5
29	klar (klarsicht)	2			4696	4.63e5
30	CG3719	1			3655	3.48e5
31	Best3 (Bestrophin 3)	1			8865	4.50e5
32	sev (sevenless)	1			5008	3.60e5
33	grau (grauzone)	1			6610	4.01e5
34	Mst85C	1			7496	5.28e5
35	hyd (hyperplastic discs)	1	reporter ratio raised past the hit cutoff (active)		14571	5.54e5
36	fal (falten)	1			10399	3.94e5
37	CG43999	1			7262	3.67e5
38	B9d1	1			7571	4.31e5
39	msk (moleskin)	1			7966	3.58e5
40	beat-IIIc (beaten path IIIc)	1			7383	5.44e5
41	beat-IIIc (beaten path IIIc)	2			7531	4.78e5
42	Bre1	1			9848	6.09e5
43	CG5550	1			6454	3.85e5
44	CG33061	1			7015	3.81e5
45	CG33061	2			3263	3.31e5
46	CG12159	1			6442	4.22e5
47	CG13085	1			6532	3.65e5
48	Zasp66 (Z band alternatively spliced PDZ-motif protein 66)	1			5899	2.96e5
49	Zasp66 (Z band alternatively spliced PDZ-motif protein 66)	2			6804	4.26e5
50	Zasp66 (Z band alternatively spliced PDZ-motif protein 66)	3			6850	4.93e5
51	CG13065	1			7688	3.46e5
52	alpha-Man-Ib (alpha-Mannosidase class I b)	1			9000	7.17e5
53	bwa (brain washing)	1			6279	4.86e5
54	bwa (brain washing)	2			6027	4.24e5
55	nvy (nervy)	1	reporter ratio raised past the hit cutoff		13484	2.11e6
56	kri (krishah)	1			6883	4.60e5
57	CG2772	1			7318	3.69e5

Records listed above with an active call (2):
target	dsRNA no.	stable siRNA reporter change	miRNA reporter change	stable assay Renilla, run 1 (luminescence)	stable assay firefly, run 1 (luminescence)
Fkbp39 (FK506-binding protein 39kD)	1		reporter ratio lowered past the hit cutoff (active)	6994	4.11e5
hyd (hyperplastic discs)	1	reporter ratio raised past the hit cutoff (active)		14571	5.54e5
